# Results reported in PubChem BioAssay (Tox21).
# Chains of the proteins cited; added tags and fusions are not shown. Lines headed by an entry give the natural chain unless they say otherwise; changes in a name come on top.
# UniProt P30968: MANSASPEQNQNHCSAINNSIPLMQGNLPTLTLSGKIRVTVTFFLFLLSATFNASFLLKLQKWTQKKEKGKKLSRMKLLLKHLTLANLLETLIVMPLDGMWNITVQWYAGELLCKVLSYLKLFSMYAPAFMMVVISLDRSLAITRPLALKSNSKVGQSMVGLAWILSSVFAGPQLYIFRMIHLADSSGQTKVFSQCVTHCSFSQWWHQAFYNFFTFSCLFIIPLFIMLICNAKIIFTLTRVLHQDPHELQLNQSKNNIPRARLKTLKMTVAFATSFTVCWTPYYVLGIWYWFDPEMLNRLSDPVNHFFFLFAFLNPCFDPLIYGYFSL
# UniProt P28223, whole entry, looked up: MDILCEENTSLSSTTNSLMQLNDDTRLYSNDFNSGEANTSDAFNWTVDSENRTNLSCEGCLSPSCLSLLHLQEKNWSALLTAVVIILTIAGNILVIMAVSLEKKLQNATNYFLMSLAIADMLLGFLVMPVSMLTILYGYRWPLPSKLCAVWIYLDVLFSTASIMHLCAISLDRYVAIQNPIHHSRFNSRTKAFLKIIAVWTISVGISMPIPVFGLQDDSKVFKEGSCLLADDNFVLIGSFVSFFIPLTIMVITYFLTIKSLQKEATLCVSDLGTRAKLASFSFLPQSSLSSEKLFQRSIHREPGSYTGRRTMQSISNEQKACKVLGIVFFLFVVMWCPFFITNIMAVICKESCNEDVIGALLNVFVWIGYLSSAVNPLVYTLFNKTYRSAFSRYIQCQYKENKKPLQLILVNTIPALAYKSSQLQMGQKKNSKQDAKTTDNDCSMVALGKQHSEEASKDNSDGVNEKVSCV
# UniProt P14416, whole entry, looked up: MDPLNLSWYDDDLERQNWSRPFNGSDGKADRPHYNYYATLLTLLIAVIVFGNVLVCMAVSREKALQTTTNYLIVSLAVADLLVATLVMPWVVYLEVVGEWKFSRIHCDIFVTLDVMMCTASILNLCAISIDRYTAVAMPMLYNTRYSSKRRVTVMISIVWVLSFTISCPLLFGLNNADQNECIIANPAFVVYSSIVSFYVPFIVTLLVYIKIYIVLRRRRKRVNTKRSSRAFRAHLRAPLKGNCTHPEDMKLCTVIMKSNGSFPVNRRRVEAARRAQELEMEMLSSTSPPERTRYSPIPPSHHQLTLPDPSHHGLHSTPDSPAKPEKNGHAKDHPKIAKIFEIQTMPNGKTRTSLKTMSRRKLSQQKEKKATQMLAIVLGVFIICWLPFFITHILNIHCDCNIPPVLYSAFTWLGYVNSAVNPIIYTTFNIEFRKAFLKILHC
# UniProt P11229: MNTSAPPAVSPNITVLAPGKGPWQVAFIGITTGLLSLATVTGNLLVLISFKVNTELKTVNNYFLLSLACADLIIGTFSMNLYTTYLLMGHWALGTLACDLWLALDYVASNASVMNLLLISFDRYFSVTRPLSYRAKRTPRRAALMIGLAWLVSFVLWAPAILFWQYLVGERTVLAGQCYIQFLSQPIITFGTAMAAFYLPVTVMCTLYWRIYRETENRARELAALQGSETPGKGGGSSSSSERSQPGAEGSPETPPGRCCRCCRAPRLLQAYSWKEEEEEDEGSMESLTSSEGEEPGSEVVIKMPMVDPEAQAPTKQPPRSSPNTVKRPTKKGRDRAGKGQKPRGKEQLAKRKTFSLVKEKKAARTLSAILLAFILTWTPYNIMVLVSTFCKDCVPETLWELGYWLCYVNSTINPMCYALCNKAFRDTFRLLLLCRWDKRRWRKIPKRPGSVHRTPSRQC
# Where “and” joins values, the source holds several entries; their conditions need not be identical. Equal values may be shown once. Inconclusive means that the source gave no clear call. Such entries were picked first, then a sample of the others. For some assays here: Potencies beside an inconclusive call are fits to weak or partial responses and may not hold up. A structure can be active in one record and inactive in another. Calls of active or inactive are those of the source. Unless noted, calls follow the shape of the full dose curve.
# Tests used:
# [1] = Nuclear factor erythroid 2-related factor 2/antioxidant responsive element (Nrf2/ARE) small molecule agonists: luciferase reporter gene qHTS assay in human keratinocytes (AID 1919969); settings: KeratinoSens HaCaT ARE-luciferase, luminescence, 24 h; series mostly up to 92.4 µM; also: nearly all actives have a fitted effect of over 35% in size
# [2] = target: Gonadotropin-releasing hormone receptor (Homo sapiens) (UniProt P30968); assay: Human gonadotropin-releasing hormone receptor (GnRHR) small molecule agonists, calcium flux assay in GnRHR-HEK293 cells (AID 1920063); settings: calcium flux fluorescence, agonist mode; activity change: at 57.6 µM (top of the series), stronger effect = higher value unless noted; also: nearly all actives have a fitted effect of over 35% in size; as to activity change: % is scaled to controls: 0 for no effect and ±100 for the full control effect
# Outline: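 Stable human GnRHR HEK293 line. 18 h plating, then calcium dye for 1 h at 37 C. Agonist-mode compound addition from DMSO stocks; fluorescence monitored 3 min.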
# [3] = p53 small molecule agonists, cell-based qHTS assay with human liver microsomes (AID 1963577); settings: HCT-116 p53RE-bla with human liver microsomes, ratio, 16 h; activation: at 66 µM (top of the series) unless noted; as to activation: % is scaled to controls: 0 for no effect and ±100 for the full control effect
# Outline: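 Fluorescence of the beta-lactamase reporter in p53RE-bla cells, detected with LiveBLAzer substrate (2 h, room temperature, dark), served as the read-out after 16 h compound exposure at 37 C with human liver microsomes and NADPH, each 0.5 mg/mL final.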
# [4] = p53 small molecule agonists, cell-based qHTS assay with rat liver microsomes (AID 1963578); settings: HCT-116 p53RE-bla, beta-lactamase ratio, 16 h; activation: at 66 µM (top of the series) unless noted
# Outline: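 Cells carrying a p53 response element–beta-lactamase reporter were plated and rested 5 h, then dosed with compound in DMSO plus rat liver microsomes and NADPH, each at 0.5 mg/mL final. After 16 h at 37 C, LiveBLAzer substrate was added for 2 h.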
# [5] = target: 5-hydroxytryptamine receptor 2A (Homo sapiens) (UniProt P28223); assay: 5-hydroxytryptamine receptor 2A (HTR2A) small molecule antagonists, cell-based qHTS assay (AID 1963586); settings: HTR2A-CHO cells, DOI-induced calcium flux, fluorescence; series mostly up to 61.5 µM; also: nearly all actives have a fitted effect of over 45% in size
# Outline: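 CHO cells stably expressing human HTR2A were plated for 18 h at 37 C, then loaded with calcium dye for 1 h. Compounds were preincubated 5 min at room temperature before DOI (4 nM solution) was added. Kinetic fluorescence was read for 3 min.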
# [6] = target: Beta-2 adrenergic receptor (Homo sapiens) (UniProt P07550); assay: Adrenergic beta2 receptor (ADRB2) small molecule agonists, cell-based qHTS assay (AID 1963593); settings: CHO-ADRB2 cells, cAMP HTRF, 30 min;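 as to activation: CHO cells stably overexpressing human ADRB2; % is scaled to controls: 0 for no effect and ±100 for the full control effect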
# Outline: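 CHO cells stably over-expressing ADRB2 were plated overnight at 37C, then dosed with compounds plus a stimulation mix containing 100uM IBMX and 25uM Ro-20-1724 for 0.5hr at room temperature. cAMP was measured by HTRF competition, 1hr.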
# [7] = Nuclear factor erythroid 2-related factor 2/antioxidant responsive element (Nrf2/ARE) small molecule agonists: qHTS cell viability counter screen in human keratinocytes (AID 1919968; active = well fitted cell-killing curve with a large enough effect in the repeat runs; inconclusive = weak or mixed curves, or effect the other way; also: nearly all actives have a fitted effect of over 55% in size); settings: KeratinoSens HaCaT ARE cells viability, CellTiter-Fluor, 24 h; series mostly up to 92.4 µM
# Outline: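 Stably transfected HaCaT (KeratinoSens), 1,500/well. Test agents in DMSO were applied for 23 h, 37 C/5% CO2. CellTiter-Fluor was incubated 1 h before the fluorescence read.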
# [8] = target: Beta-2 adrenergic receptor (Homo sapiens) (UniProt P07550); assay: Adrenergic beta2 receptor (ADRB2) small molecule antagonists, cell-based qHTS assay (AID 1963592); settings: CHO-ADRB2 cells, isoproterenol-stimulated cAMP HTRF ratio, 0.5 h; activity change, negative = inhibition: at 92.4 µM (top of the series) unless noted; also: nearly all actives have a fitted effect of over 50% in size; as to activity change, negative = inhibition: % is scaled to controls: 0 for no effect and ±100 for the full control effect
# Outline: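 Assay format: CHO-ADRB2 cells, 18-20hr seeding at 37C/5% CO2, then compound plus 1nM isoproterenol agonist mix for 0.5hr RT. Homogeneous time-resolved fluorescence cAMP detection after 1hr, expressed as 665/615 nm ratio.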
# [9] = target: D(2) dopamine receptor (Homo sapiens) (UniProt P14416); assay: Dopamine D2 receptor (DRD2) small molecule agonists, cell-based qHTS assay (AID 1963594); settings: HEK293-DRD2 cAMP HTRF, agonist mode, 30 min; activation: at 92.4 µM (top of the series) unless noted; also: nearly all actives have a fitted effect of over 35% in size
# Outline: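 cAMP accumulation in DRD2-HEK293 cells measured by HTRF after 1 h detection; compounds added 10 min before NKH477 (200nM […]) forskolin-analogue stimulation, 30 min at room temperature, with Ro20-1724 present at 0.1 mM final.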
# [10] = target: D(2) dopamine receptor (Homo sapiens) (UniProt P14416); assay: Dopamine D2 receptor (DRD2) small molecule antagonists, cell-based qHTS assay (AID 1963595; active = well fitted inhibition curve with a large enough effect in the signal ratio in the repeat runs, with a control signal flat; inconclusive = weak or mixed curves, or effect the other way; the % refers to the signal ratio); settings: HEK293-DRD2 cAMP HTRF antagonist mode; activity change, negative = inhibition: at 92.4 µM (top of the series) unless noted
# Outline: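 HEK293 cells stably expressing DRD2 were preincubated with 0.1 mM Ro20-1724, then with compound for 10 min at room temperature. Cells were stimulated with 200 nM NKH477 plus 12 nM quinpirole for 30 min, and cAMP was read by HTRF.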
# [11] = p53 small molecule agonists, cell-based qHTS assay with human liver microsomes: qHTS cell viability counter screen (AID 1963579); settings: p53RE-bla HCT-116 viability, ATP luminescence, 16 h, HLM; series mostly up to 66 µM; also: nearly all actives have a fitted effect of over 45% in size
# Outline: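 Cytotoxicity counter screen: p53RE-bla, 4,000 cells/well; 5 h settle, 37 C/5% CO2; cpd + HLM 0.5 mg/mL + NADPH 0.5 mg/mL (final); 16 h, 37 C; CellTiter-Glo, 30 min RT, luminescence.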
# [12] = target: 5-hydroxytryptamine receptor 2A (Homo sapiens) (UniProt P28223); assay: 5-hydroxytryptamine receptor 2A (HTR2A) small molecule agonists, cell-based qHTS assay (AID 1963587); settings: HTR2A-CHO cells, calcium flux fluorescence, agonist mode; activation: at 76.8 µM (top of the series); also: nearly all actives have a fitted effect of over 30% in size
# Outline: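 Kinetic calcium-flux fluorescence (2 min, 1 sec intervals) after compound addition in agonist mode. HTR2A-CHO cells were cultured 18 h, then dye-loaded 1 h at 37 C.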
# [13] = cAMP Responsive Elements (CRE) small molecule agonists, cell-based qHTS assay (AID 1963590); settings: CRE-bla HEK293T, beta-lactamase FRET ratio, 3 h; activation: at 92.4 µM (top of the series) unless noted
# Outline: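 Test agents in DMSO were incubated 3 h at 37 C/5% CO2 with CRE-bla HEK 293T cells seeded 18 h earlier; LiveBLAzer B/G FRET substrate was added and read after 2 h at room temperature.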
# [14] = p53 small molecule agonists, cell-based qHTS assay with rat liver microsomes: qHTS cell viability counter screen (AID 1963580); settings: p53RE-bla HCT-116 + rat microsomes, ATP viability, 16 h; series mostly up to 66 µM; also: nearly all actives have a fitted effect of over 45% in size
# Outline: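 Cytotoxicity counter screen: intracellular ATP read by CellTiter-Glo luminescence in the p53 reporter wells. HCT-116 p53RE-bla cells were treated for 16 h at 37 C alongside rat liver microsomes and NADPH, each 0.5 mg/mL final.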
# [15] = p53 small molecule agonists, cell-based qHTS assay: qHTS cell viability counter screen (AID 1963581); settings: p53RE-bla HCT-116 viability, ATP luminescence, 16 h; series mostly up to 66 µM; also: nearly all actives have a fitted effect of over 45% in size
# Outline: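 qHTS counter screen: 16 h compound exposure at 37 C of p53RE-bla HCT-116 cells (4,000 per well, seeded 5 h prior), cell viability by ATP luminescence.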
# [16] = p53 small molecule agonists, cell-based qHTS assay (AID 1963582; active = well fitted activation curve with a large enough effect in the signal ratio in the repeat runs, not every such curve was filed as active; inconclusive = weak or mixed curves; the % refers to the signal ratio); settings: HCT-116 p53RE-bla reporter, beta-lactamase FRET ratio, 16 h; activation: at 66 µM (top of the series) unless noted
# Outline: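 Measured: fluorescence from cleaved LiveBLAzer substrate. System: p53RE-bla cells, 16 h compound treatment at 37 C, 2 h substrate step at room temperature.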
# [17] = cAMP Responsive Elements (CRE) small molecule antagonists, cell-based qHTS assay (AID 1963591; active = well fitted inhibition curve with a large enough effect in the signal ratio in the repeat runs, not every such curve was filed as active; inconclusive = weak or mixed curves, or effect the other way; the % refers to the signal ratio); settings: CRE-bla HEK293T, beta-lactamase FRET ratio; activity change, negative = inhibition: at 92.4 µM (top of the series) unless noted
# Outline: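 Reporter line CRE-bla HEK 293T in dialyzed-FBS DMEM; cells preincubated 18 h, treated 3 h with compound plus NKH477 (0.25 uM final); LiveBLAzer FRET, 2 h RT.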
# [18] = target: Muscarinic acetylcholine receptor M1 (Homo sapiens) (UniProt P11229); assay: Cholinergic receptor muscarinic 1 (CHRM1) small molecule antagonists, cell-based qHTS assay (AID 1963588); settings: CHRM1-CHO antagonist mode, calcium flux fluorescence; series mostly up to 61.5 µM; also: nearly all actives have a fitted effect of over 40% in size
# Outline: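 Compounds were tested at 15 concentrations in three independent runs. Dye-loaded CHRM1-CHO cells were exposed 5 min at room temperature before stimulation by acetylcholine added at 50nM. Intracellular calcium was read kinetically on FDSS for 3 min.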
# [19] = activation: at 92.4 µM (top of the series) unless noted
# Potency is read from the fitted curve at half-maximal effect.
smiles,measurement,setting,value
CCOP(=S)(OCC)SCCS(=O)(=O)CC,Potency,[1],"inconclusive: 68.6 µM [activator, single point]"
same,Potency,[2],inactive
same,Potency,[3],"inconclusive: 5.76 µM [fluorescent, partial curve]"
same,Potency,[4],inconclusive: 0.442 µM [fluorescent]
same,Potency,[5],"inconclusive: 0.0027 µM [inhibitor, full curve, poor fit]"
same,Potency,[6]; [19],inactive
CCCCCCC1CCOC1=O (configuration not stated),Potency,[7],inactive
same,activation,[6]; [19],inconclusive: -38.9%
c1nc[nH]n1,Potency,[1],inactive
CNCC(=O)c1ccc(O)c(O)c1,Potency,[1],inactive
same,Potency,[2],active: 5.35 µM
same,activation,[3],inconclusive: 7.86% [at 30.3 µM]
same,"activity change, negative = inhibition",[8],inconclusive: 15.4% [at 42.5 µM]
same,Potency,[6]; [19],active: 0.531 µM
same,Potency,[9],active: 26.6 µM
same,Potency,[10],active: 26.6 µM
Cc1cccc([N+](=O)[O-])c1,Potency,[7],inactive
same,activation,[6]; [19],inconclusive: -24.8%
same,activation,[6]; at 92.4 µM (top of the series),inactive: -21.7%
same,activation,[9],inconclusive: 2.15%
CCCN(CC1CC1)c1c([N+](=O)[O-])cc(C(F)(F)F)cc1[N+](=O)[O-],Potency,[7],"inconclusive: 34.4 µM [rising, partial curve]"
same,activation,[6]; [19],inconclusive: 44.2%
CN(C)[C@@H]1C(=O)C(C(N)=O)=C(O)[C@@]2(O)C(=O)C3=C(O)c4c(O)cccc4[C@@](C)(O)[C@H]3[C@H](O)[C@@H]12,Potency,[1],"inconclusive: 1.34 µM [activator, single point] and inconclusive: 54.5 µM [activator, partial curve]"
same,Potency,[2],"inconclusive: 43.6 µM [activator, partial curve, poor fit]"
same,Potency,[11],"inconclusive: 10.2 µM [cytotoxic, single point]"
same,Potency,[12],"inconclusive: 61.1 µM [activator, partial curve, poor fit]"
same,Potency,[13],"inconclusive: 66.9 µM [rising, single point]"
same,activation,[6]; [19],inconclusive: -4.82% and inconclusive: 5.95% and inconclusive: 11.8%
same,activation,[6]; at 92.4 µM (top of the series),inactive: -14.4%
CCOC(=O)CP(=O)(OCC)OCC,Potency,[1],inactive
COc1cccc2c1C(=O)c1c(O)c3c(c(O)c1C2=O)C[C@@](O)(C(=O)CO)CC3OC1CC(N2CCOC(OC)C2)C(O)C(C)O1 (some centres not stated),Potency,[1],"inconclusive: 0.298 µM [activator, partial curve]"
same,Potency,[2],"inconclusive: 15.1 µM [activator, partial curve, poor fit]"
same,Potency,[11],"inconclusive: 0.354 µM [rising, full curve]"
same,Potency,[14],"inconclusive: 0.199 µM [rising, full curve]"
same,Potency,[15],"inconclusive: 0.793 µM [rising, full curve]"
same,Potency,[16],inconclusive: 3.97 µM
same,Potency,[12],active: 16.9 µM
same,Potency,[17],active: 1.19 µM
same,Potency,[8],inactive
same,Potency,[6]; [19],inactive
same,Potency,[9],inconclusive: 28.2 µM
same,"activity change, negative = inhibition",[10],inconclusive: 0.408% [at 42.5 µM]
O=C1C(Cl)=C(Cl)C(=O)C(Cl)=C1Cl,Potency,[1],active: 4.84 µM and active: 9.69 µM
same,Potency,[2],"inconclusive: 43.5 µM [activator, single point]"
same,Potency,[4],"inconclusive: 45.8 µM [rising, single point]"
same,activation,[4],inconclusive: 24.6%
same,Potency,[11],"inconclusive: 51.2 µM [cytotoxic, single point] and active: 40.8 µM"
same,Potency,[14],active: 40.8 µM
same,Potency,[15],"inconclusive: 51.2 µM [cytotoxic, single point]"
same,Potency,[16],"inconclusive: 40.6 µM [fluorescent, partial curve] and inconclusive: 9.13 µM [fluorescent, full curve, poor fit]"
same,Potency,[5],"inconclusive: 93.9 µM [inhibitor, single point]"
same,Potency,[12],"inconclusive: 48.8 µM [activator, partial curve, poor fit]"
same,Potency,[18],inconclusive: 0.0011 µM [inhibitor]
same,Potency,[13],inconclusive: 54.5 µM
same,"activity change, negative = inhibition",[17],inconclusive: 18.7%
same,Potency,[8],"inconclusive: 54.3 µM [falling, partial curve]"
same,"activity change, negative = inhibition",[8],inconclusive: -18.7%
same,Potency,[10],"inconclusive: 38.4 µM [cytotoxic, partial curve] and inconclusive: 27.3 µM [cytotoxic, partial curve]"
S=C=NCCc1ccccc1,Potency,[7],"inconclusive: 68.7 µM [cytotoxic, single point]"
same,Potency,[6]; [19],inactive
CCC(C)Cl (configuration not stated),Potency,[7],inactive
same,Potency,[6]; [19],"inconclusive: 2.71 µM [inhibitor, single point]"

# Reformatted with tabs: part of the list above
smiles	measurement	setting	value
CCOP(=S)(OCC)SCCS(=O)(=O)CC	Potency	[6]; [19]	inactive
CN(C)[C@@H]1C(=O)C(C(N)=O)=C(O)[C@@]2(O)C(=O)C3=C(O)c4c(O)cccc4[C@@](C)(O)[C@H]3[C@H](O)[C@@H]12	activation	[6]; at 92.4 µM (top of the series)	inactive: -14.4%
COc1cccc2c1C(=O)c1c(O)c3c(c(O)c1C2=O)C[C@@](O)(C(=O)CO)CC3OC1CC(N2CCOC(OC)C2)C(O)C(C)O1 (some centres not stated)	Potency	[8]	inactive
